Experimental data as given in the supplement of paper PMC10973195.
± gives the standard deviation of the averaged measurements. This is one part of the list. These are raw signals, not scaled to a control.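 The test system is a mixed culture of neurons, microglia and astrocytes in which bacterial LPS triggers microglia-driven neuron loss, modelling inflammatory neurodegeneration. Each compound was compared with vehicle (DMSO) wells on the same plates, and the SYK inhibitor BAY61-3606 served as the reference neuroprotective control.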

Assays:
Settings in all cases: 1 µM, treatment time 3 days
[1] = tested on: rat primary cerebellar neuron-glia coculture; experiment: microglia count (IB4+) per image field (cells per field); higher = more microglia
[2] = tested on: rat primary cerebellar neuron-glia coculture; experiment: necrotic cell count (DRAQ7+) per image field (cells per field); higher = more necrosis
[3] = tested on: rat primary cerebellar neuron-glia coculture; experiment: live neuron count (NeuO+) per image field (cells per field); higher = more surviving neurons
[4] = tested on: rat primary cerebellar neuron-glia coculture; experiment: median microglial FormFactor (circularity) per image (dimensionless (0-1)); higher = rounder, more ameboid microglia

SMILES	microglia count ([1]; LPS 0 ng/mL)	microglia count ([1]; LPS 100 ng/mL)	necrotic cell count ([2]; LPS 0 ng/mL)	necrotic cell count ([2]; LPS 100 ng/mL)	live neuron count ([3]; LPS 0 ng/mL)	live neuron count ([3]; LPS 100 ng/mL)	median microglial FormFactor ([4]; LPS 0 ng/mL)	median microglial FormFactor ([4]; LPS 100 ng/mL)
O=C(N1CCCCC1c1ccccc1)n1cc(-c2ccc(-c3cccc(CO)c3)cc2)nn1 (stereo unspecified)	172 ± 56	521 ± 290	80.6 ± 15	818 ± 350	2520 ± 370	292 ± 340	0.545 ± 0.074	0.679 ± 0.05
CC(C)Oc1ccc(-c2cnc3c(-c4ccnc5ccccc45)cnn3c2)cc1	169 ± 44	428 ± 99	84.7 ± 36	947 ± 240	2550 ± 440	405 ± 410	0.529 ± 0.089	0.661 ± 0.062
CCCCCCCC(=O)N[C@H](CN1CCCC1)[C@H](O)c1ccc2c(c1)OCCO2	227 ± 52	460 ± 130	56.8 ± 17	985 ± 330	2080 ± 510	230 ± 190	0.524 ± 0.084	0.638 ± 0.082
CC#CCn1c(N2CCC[C@@H](N)C2)nc2c1c(=O)n(Cc1nc(C)c3ccccc3n1)c(=O)n2C	195 ± 72	448 ± 98	86.3 ± 43	773 ± 270	2630 ± 450	592 ± 710	0.562 ± 0.087	0.626 ± 0.11
O=C1NCCSc2c1sc1ccc(O)cc21	178 ± 60	419 ± 94	70.2 ± 18	1070 ± 260	3080 ± 300	572 ± 520	0.474 ± 0.076	0.64 ± 0.063
CC(CCc1ccccc1)NCC(O)c1ccc(O)c(C(N)=O)c1 (stereo unspecified)	132 ± 30	413 ± 63	103 ± 47	412 ± 160	2650 ± 520	1390 ± 800	0.578 ± 0.066	0.615 ± 0.12
N=C1CCCN1Cc1[nH]c(=O)[nH]c(=O)c1Cl	178 ± 70	402 ± 65	90.3 ± 26	1080 ± 320	2650 ± 430	248 ± 200	0.549 ± 0.092	0.694 ± 0.049
Cc1ccc(-n2cnc3c(sc4nccc(N(C)C)c43)c2=O)cc1	168 ± 51	416 ± 74	83.4 ± 31	1020 ± 400	2550 ± 330	412 ± 660	0.538 ± 0.078	0.679 ± 0.082
CC1Cc2ccccc2N1NC(=O)c1ccc(Cl)c(S(N)(=O)=O)c1 (stereo unspecified)	163 ± 44	446 ± 80	80.6 ± 29	792 ± 320	2610 ± 410	668 ± 960	0.532 ± 0.063	0.663 ± 0.082
COc1cc(-c2cc(-c3cccc(O)c3)cnc2N)cc(OC)c1OC	167 ± 34	408 ± 59	122 ± 76	1030 ± 370	2520 ± 520	576 ± 840	0.543 ± 0.1	0.649 ± 0.041
CC(=O)Nc1cccc2c1c(Sc1ccc(Cl)cc1)c(C)n2CC(=O)O	150 ± 39	519 ± 94	114 ± 35	452 ± 280	2550 ± 660	1630 ± 1000	0.543 ± 0.11	0.553 ± 0.1
CCN(CC)CCOc1ccc2c(c1)C(=O)c1cc(OCCN(CC)CC)ccc1-2	160 ± 40	432 ± 87	84 ± 27	1140 ± 370	2600 ± 420	206 ± 210	0.487 ± 0.1	0.663 ± 0.047

Random excerpt: 2 entries already listed.
SMILES	microglia count ([1]; LPS 0 ng/mL)	microglia count ([1]; LPS 100 ng/mL)	necrotic cell count ([2]; LPS 0 ng/mL)	necrotic cell count ([2]; LPS 100 ng/mL)	live neuron count ([3]; LPS 0 ng/mL)	live neuron count ([3]; LPS 100 ng/mL)	median microglial FormFactor ([4]; LPS 0 ng/mL)	median microglial FormFactor ([4]; LPS 100 ng/mL)
CC1Cc2ccccc2N1NC(=O)c1ccc(Cl)c(S(N)(=O)=O)c1 (stereo unspecified)	163 ± 44	446 ± 80	80.6 ± 29	792 ± 320	2610 ± 410	668 ± 960	0.532 ± 0.063	0.663 ± 0.082
Cc1ccc(-n2cnc3c(sc4nccc(N(C)C)c43)c2=O)cc1	168 ± 51	416 ± 74	83.4 ± 31	1020 ± 400	2550 ± 330	412 ± 660	0.538 ± 0.078	0.679 ± 0.082
